From the supplement of paper PMC12823440, “Inhibitors supercharge kinase turnover through native proteolytic circuits” (Nature, 2025)
Where a name gives a salt, the structure may show the parent alone. Some of the results follow. Hit calls seldom repeat between salt and free forms of one compound.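 Kinases were expressed as nanoluciferase fusions in K562 cells and luminescence was read every 4 h between 2 and 18 h as percent of control, DMSO set to 100% and a positive control to 0%. A time point counts as decreased when the signal drops significantly (2 sigma). The hit call is the authors' own, does not follow from the count of time points alone, and its rule is not shown.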

Sequences of proteins named here, by UniProt entry; tags and fusion partners are left off. A change or cut given only in a name is not applied to a line headed by its entry.
UniProt Q96KB5: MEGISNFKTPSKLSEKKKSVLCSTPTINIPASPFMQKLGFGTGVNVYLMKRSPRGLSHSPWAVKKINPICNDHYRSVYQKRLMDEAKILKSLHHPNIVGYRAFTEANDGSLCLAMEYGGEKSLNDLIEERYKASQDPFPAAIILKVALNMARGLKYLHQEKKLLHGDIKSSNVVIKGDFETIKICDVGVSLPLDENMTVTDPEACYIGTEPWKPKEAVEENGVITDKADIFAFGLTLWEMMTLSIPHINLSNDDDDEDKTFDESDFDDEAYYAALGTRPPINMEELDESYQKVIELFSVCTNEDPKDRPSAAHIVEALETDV
UniProt P09619, whole entry: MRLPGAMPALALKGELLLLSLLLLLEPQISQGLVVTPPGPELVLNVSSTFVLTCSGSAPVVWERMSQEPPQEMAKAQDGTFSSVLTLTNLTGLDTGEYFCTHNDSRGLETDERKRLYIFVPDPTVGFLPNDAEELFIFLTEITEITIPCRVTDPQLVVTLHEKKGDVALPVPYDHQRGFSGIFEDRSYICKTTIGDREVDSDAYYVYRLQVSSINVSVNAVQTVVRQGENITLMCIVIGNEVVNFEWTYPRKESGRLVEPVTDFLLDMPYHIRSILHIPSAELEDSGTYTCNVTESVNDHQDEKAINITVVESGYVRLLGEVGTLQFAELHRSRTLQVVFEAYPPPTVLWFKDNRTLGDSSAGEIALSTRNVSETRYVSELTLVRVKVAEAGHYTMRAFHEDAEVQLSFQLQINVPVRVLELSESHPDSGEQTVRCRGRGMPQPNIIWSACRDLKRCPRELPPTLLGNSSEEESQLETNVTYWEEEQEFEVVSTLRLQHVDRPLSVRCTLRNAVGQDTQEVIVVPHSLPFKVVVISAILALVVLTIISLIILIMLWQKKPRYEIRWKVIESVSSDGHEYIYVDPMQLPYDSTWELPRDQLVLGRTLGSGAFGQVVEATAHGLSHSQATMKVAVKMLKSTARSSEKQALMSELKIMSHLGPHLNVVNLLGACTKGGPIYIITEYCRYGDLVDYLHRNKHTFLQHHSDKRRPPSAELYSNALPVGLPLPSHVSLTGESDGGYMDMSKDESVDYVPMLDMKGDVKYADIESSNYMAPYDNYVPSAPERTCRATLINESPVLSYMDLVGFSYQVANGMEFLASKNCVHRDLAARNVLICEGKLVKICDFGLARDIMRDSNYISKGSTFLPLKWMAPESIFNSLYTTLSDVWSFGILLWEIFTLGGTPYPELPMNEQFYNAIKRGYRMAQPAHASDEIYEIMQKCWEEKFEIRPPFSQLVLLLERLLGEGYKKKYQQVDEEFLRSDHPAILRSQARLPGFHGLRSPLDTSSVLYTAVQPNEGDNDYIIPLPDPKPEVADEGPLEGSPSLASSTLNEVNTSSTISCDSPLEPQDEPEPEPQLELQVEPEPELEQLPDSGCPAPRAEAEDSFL
UniProt Q15118, whole entry, looked up: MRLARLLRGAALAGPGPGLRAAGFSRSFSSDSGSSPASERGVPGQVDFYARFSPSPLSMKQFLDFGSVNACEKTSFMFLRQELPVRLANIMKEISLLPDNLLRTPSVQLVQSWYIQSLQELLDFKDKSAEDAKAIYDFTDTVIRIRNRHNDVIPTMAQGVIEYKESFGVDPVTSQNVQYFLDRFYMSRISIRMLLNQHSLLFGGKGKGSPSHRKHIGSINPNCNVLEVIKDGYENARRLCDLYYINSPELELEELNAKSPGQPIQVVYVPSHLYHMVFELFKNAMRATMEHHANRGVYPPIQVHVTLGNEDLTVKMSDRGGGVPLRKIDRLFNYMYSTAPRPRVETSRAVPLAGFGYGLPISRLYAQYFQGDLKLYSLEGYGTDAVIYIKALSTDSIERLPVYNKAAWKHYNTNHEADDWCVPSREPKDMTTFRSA
UniProt O15530: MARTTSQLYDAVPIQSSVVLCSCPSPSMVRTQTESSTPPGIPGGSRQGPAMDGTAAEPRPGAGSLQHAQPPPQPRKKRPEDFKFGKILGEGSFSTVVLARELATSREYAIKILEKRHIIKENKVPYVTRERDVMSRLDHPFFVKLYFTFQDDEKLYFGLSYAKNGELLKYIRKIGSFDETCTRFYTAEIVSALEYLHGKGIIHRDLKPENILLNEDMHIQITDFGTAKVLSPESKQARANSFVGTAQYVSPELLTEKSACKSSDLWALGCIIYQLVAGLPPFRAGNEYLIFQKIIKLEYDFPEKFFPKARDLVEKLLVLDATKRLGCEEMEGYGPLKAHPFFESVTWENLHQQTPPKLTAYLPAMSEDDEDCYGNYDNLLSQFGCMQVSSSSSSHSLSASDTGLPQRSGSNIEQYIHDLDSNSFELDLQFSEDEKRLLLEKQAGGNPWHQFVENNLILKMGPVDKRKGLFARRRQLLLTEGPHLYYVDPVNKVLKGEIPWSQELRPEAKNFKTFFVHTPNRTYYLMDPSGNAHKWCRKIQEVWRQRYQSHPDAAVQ
UniProt P07949, whole entry, looked up: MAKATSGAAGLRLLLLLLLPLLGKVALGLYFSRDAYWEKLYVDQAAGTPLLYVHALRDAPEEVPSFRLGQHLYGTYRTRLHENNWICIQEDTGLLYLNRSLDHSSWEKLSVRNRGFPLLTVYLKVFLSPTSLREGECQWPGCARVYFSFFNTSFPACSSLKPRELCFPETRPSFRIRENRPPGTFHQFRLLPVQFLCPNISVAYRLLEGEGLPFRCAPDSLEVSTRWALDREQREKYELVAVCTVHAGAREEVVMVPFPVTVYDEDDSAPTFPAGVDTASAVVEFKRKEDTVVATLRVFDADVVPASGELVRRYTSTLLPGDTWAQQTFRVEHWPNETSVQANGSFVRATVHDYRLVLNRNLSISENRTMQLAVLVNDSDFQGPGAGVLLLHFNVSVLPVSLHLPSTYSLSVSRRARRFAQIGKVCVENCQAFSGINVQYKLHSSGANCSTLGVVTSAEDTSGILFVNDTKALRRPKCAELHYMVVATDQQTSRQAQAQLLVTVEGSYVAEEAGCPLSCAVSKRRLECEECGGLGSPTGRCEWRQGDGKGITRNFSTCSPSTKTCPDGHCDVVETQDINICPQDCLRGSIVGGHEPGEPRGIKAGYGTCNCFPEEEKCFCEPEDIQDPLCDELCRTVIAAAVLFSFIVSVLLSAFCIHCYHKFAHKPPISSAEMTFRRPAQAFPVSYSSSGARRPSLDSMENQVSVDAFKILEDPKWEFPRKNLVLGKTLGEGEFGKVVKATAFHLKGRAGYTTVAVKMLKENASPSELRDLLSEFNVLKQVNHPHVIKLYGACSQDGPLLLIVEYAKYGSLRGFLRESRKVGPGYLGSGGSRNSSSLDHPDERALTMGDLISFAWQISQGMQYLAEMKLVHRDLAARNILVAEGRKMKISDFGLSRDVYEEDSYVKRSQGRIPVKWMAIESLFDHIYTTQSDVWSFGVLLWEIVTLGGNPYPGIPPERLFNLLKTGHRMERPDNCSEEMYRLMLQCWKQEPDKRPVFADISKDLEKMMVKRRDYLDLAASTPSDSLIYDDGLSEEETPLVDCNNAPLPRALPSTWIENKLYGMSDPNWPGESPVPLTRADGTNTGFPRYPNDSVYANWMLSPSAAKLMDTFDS
UniProt P07949, whole entry M918T, looked up: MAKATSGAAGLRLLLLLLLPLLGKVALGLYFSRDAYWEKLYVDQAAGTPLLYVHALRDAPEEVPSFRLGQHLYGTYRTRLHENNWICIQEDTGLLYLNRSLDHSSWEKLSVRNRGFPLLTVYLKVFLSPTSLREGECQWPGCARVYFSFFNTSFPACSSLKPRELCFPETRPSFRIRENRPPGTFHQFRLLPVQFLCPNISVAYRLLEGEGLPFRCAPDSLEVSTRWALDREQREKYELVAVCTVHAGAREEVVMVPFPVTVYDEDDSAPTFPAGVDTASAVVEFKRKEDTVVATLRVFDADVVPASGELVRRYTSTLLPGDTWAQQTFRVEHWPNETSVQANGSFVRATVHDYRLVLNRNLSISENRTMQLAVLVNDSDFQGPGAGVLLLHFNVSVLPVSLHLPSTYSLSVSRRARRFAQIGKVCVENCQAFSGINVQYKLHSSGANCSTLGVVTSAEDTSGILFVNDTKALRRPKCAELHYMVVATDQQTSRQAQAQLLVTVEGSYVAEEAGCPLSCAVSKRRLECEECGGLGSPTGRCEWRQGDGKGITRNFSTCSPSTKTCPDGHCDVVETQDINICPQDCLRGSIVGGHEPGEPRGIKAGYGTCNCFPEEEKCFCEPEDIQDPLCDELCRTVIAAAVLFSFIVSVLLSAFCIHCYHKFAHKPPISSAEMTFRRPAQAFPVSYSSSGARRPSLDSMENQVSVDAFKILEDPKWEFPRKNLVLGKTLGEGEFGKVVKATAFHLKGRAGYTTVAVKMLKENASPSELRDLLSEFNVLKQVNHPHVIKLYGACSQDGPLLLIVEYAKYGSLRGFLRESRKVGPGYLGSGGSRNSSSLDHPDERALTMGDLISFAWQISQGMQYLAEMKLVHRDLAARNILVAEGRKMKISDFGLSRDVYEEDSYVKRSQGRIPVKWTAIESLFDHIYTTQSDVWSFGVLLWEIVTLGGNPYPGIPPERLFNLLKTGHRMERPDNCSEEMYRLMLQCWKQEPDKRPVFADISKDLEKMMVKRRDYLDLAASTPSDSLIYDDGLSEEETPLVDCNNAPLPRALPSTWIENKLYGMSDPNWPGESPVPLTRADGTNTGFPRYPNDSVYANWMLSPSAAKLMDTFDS
UniProt Q9BRS2: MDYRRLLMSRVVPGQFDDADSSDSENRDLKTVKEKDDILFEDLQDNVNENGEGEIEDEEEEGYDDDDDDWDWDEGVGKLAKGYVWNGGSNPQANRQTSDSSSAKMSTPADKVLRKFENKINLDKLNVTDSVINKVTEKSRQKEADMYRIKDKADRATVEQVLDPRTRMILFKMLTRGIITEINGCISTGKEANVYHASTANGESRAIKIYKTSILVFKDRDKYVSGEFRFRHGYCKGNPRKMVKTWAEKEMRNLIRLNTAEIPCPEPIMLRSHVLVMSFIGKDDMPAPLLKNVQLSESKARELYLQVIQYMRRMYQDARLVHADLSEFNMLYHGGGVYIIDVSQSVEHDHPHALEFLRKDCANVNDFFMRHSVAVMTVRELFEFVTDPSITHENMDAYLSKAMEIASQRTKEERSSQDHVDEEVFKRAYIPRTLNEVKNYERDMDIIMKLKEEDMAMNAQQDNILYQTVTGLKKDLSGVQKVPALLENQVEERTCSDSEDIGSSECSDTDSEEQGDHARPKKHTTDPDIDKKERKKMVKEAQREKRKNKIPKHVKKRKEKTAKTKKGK
UniProt Q13546: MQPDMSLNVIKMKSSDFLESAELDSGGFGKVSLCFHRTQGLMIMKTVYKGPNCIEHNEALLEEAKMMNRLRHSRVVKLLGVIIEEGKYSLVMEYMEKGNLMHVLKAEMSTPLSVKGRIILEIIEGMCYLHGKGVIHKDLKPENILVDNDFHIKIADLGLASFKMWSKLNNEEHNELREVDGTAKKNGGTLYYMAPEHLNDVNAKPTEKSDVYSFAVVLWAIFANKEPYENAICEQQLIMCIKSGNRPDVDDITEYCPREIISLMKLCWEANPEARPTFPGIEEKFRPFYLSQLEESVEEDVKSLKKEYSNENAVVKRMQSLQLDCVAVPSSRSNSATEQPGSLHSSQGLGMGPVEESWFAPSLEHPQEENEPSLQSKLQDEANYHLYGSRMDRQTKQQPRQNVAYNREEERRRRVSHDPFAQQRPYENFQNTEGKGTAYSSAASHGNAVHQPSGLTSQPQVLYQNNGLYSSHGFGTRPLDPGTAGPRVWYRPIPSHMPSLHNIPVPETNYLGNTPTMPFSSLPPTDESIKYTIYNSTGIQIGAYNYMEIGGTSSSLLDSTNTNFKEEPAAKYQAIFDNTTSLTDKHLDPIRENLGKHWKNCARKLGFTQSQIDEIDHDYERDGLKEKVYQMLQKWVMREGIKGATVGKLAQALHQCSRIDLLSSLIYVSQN

Tests used:
Experiment in all cases: number of time points (of 5) at which kinase-Nluc abundance scored as decreased, DMSO-normalised (count); higher = more persistent destabilization
Details in all cases: K562; 2-18 h
[1] = molecular target: NTRK3 (UniProt Q16288)
[2] = molecular target: PAK4 (UniProt O96013)
[3] = molecular target: PBK (UniProt Q96KB5)
[4] = molecular target: PDGFRB (UniProt P09619)
[5] = molecular target: PDK1 (UniProt Q15118)
[6] = molecular target: PDPK1 (UniProt O15530)
[7] = molecular target: PIK4CA (UniProt P42356)
[8] = molecular target: PIK4CB (UniProt Q9UBF8)
[9] = molecular target: PLK1 (UniProt P53350)
[10] = molecular target: PRKAA1 (UniProt Q13131)
[11] = molecular target: PRKCA (UniProt P17252)
[12] = molecular target: PTK2 (UniProt Q05397)
[13] = molecular target: PTK2B (UniProt Q14289)
[14] = molecular target: RAF1 (UniProt P04049)
[15] = molecular target: RAF1_S257L (clone: RAF1_mut) (UniProt P04049)
[16] = molecular target: RET (UniProt P07949)
[17] = molecular target: RET_M918T (clone: RET_mut) (UniProt P07949)
[18] = molecular target: RIOK1 (UniProt Q9BRS2)
[19] = molecular target: RIPK1 (UniProt Q13546)
[20] = molecular target: RIPK2 (UniProt O43353)

Measured: number of time points

C[C@@H]1O[C@@H](O[C@H]2[C@H](OC(=O)[C@]34CCC(C)(C)C[C@H]3C3=CC[C@@H]5[C@@]6(C)C[C@H](O)[C@H](O[C@@H]7O[C@H](CO)[C@@H](O)[C@H](O)[C@H]7O)C(CO)(CO)[C@@H]6CC[C@@]5(C)[C@]3(C)C[C@H]4O)OC[C@H](O)[C@@H]2O)[C@H](O)[C@H](O)[C@H]1O[C@@H]1OC[C@@H](O)[C@H](O[C@@H]2OC[C@](O)(CO)[C@H]2O)[C@H]1O [Platycodin D] (10 µM)
3: [18]
0: all other assays above

O=C(CC(c1ccccc1)C(C(=O)O)C(=O)O)c1ccc(C(F)(F)F)cc1 (stereo not given) (10 µM)
0: all assays above

CN(C)CCCn1cc(C2=C(c3c[nH]c4ccccc34)C(=O)NC2=O)c2ccccc21 [Bisindolylmaleimide I] (2.5 µM)
0: all assays above

N#Cc1c[nH]c2ccc(-c3ccc(-c4c(O)cccc4O)cc3)cc12 (10 µM)
0: all assays above

O=S(=O)(c1cccc2c(Cl)cccc12)N1CCCNCC1 (10 µM)
0: all assays above

CN1CCC(c2ccccc2CC(C)(C)Nc2nc(N3CCOCC3)nc(-n3c(S(C)(=O)=O)nc4ccccc43)n2)CC1 (10 µM)
0: all assays above

COc1ccc(S(=O)(=O)N(CCO)c2ccccc2CN(C)CC=Cc2ccc(Cl)cc2)cc1 (2.5 µM)
0: all assays above

Cc1c(C(=O)Nc2ccc(Oc3ccnc4cc(OCC(C)(C)O)ccc34)c(F)c2)c(=O)n(-c2ccccc2)n1C [Ningetinib Tosylate] (10 µM)
2: [12] | [14] | [15]
1: [1]
3: [4] | [6]
0: all other assays above

CC(C)Cn1cc(C#N)c2cc(Oc3ccc(NC(=O)[C@@H]4CCCN4)cc3)ccc21 (10 µM)
0: all assays above

Retrieved by compound from above (two):
O=C(CC(c1ccccc1)C(C(=O)O)C(=O)O)c1ccc(C(F)(F)F)cc1 (stereo not given) (10 µM)
0: all assays above

COc1ccc(S(=O)(=O)N(CCO)c2ccccc2CN(C)CC=Cc2ccc(Cl)cc2)cc1 (2.5 µM)
0: all assays above

The results go on.

CC(=O)Nc1nc(C)c(-c2ccc(Cl)c(S(=O)(=O)NCCO)c2)s1 (10 µM)
1: [12] | [18] | [19]
4: [15]
0: all other assays above

C=CC(=O)Nc1cccc(Oc2nc(Nc3ccc(N4CCN(C)CC4)cc3)nc3ccsc23)c1 [Olmutinib] (2.5 µM)
0: all assays above

Cc1ccc(-c2csc(Cn3nc(CC4OCCCO4)c4ccccc4c3=O)n2)cc1 (10 µM)
0: all assays above

C[C@]1(O)C[C@@](N)(c2ccc(-c3nc4n(c3-c3ccccc3)COc3ccncc3-4)cc2)C1 [TAS-117 (hydrochloride)] (10 µM)
0: all assays above

O=C(N/N=C/c1ccc([N+](=O)[O-])o1)c1ccc(O)cc1 [Nifuroxazide] (10 µM)
1: [10] | [14] | [16]
0: [2] | [3] | [5] | [9] | [11] | [12] | [13]
3: [1] | [7] | [20]
2: all other assays above

O=C1C(=Cc2ccc(O)c(O)c2)Oc2ccccc21 (2.5 µM)
0: all assays above

CNC(=O)c1c(C)oc2cc(Oc3ncnc4cc(OC)c(OC)cc34)ccc12 [Fruquintinib] (10 µM)
0: all assays above

O=C1NC(=O)C(c2ccccc2[N+](=O)[O-])=C1Nc1ccc(O)c(Cl)c1 (10 µM)
0: all assays above

Cc1cccc(Cn2nc(C)c3c(NC(=O)c4csc5c(N)ncnc45)cccc32)n1 (10 µM)
0: all assays above

COC(=O)[C@]1(C)CC[C@]2(C(=O)O[C@@H]3O[C@H](CO)[C@@H](O)[C@H](O)[C@H]3O)CC[C@]3(C)C(=CC[C@@H]4[C@@]5(C)C[C@H](O)[C@H](O[C@@H]6OC[C@@H](O[C@@H]7O[C@H](CO)[C@@H](O)[C@H](O)[C@H]7O)[C@H](O)[C@H]6O)[C@@](C)(CO)C5CC[C@]43C)[C@H]2C1 (stereo not given in full) [Esculentoside H] (10 µM)
1: [13]
0: all other assays above

CC(=O)NCC(=O)N[C@@H](C)C(=O)N[C@@H](CCC(N)=O)C(=O)N[C@@H](Cc1ccccc1)C(=O)N[C@@H](CO)C(=O)N[C@@H](CCCCN)C(=O)N[C@H](C(=O)N[C@@H](C)C(=O)N[C@@H](C)C(=O)N[C@@H](CCCCN)C(=O)O)[C@@H](C)O (10 µM)
0: all assays above

COc1cc(-c2cnc(N)c(-c3ccc(NC(=O)c4cn(CC5CCOCC5)cc(-c5ccc(C)cn5)c4=O)cc3F)c2)ccc1OC[C@H]1COCCO1 [DS-1205b (free base)] (10 µM)
0: all assays above

COc1cc(/C=C/c2ccc(NC(=O)/C=C/c3cc(OC)c(OC)c(OC)c3)cc2)cc(OC)c1 (2.5 µM)
0: all assays above

C=CC(=O)N1CCC[C@@H](n2c(=O)n(-c3ccc(Oc4ccccc4)cc3)c3c(N)nccc32)C1 [Tolebrutinib] (10 µM)
0: all assays above
